Assay results from publication PMC3296292.
Results are given in words; binding and its absence hold for the method and conditions named. For part of these data: A result given as binding can be weak or reduced; the word gives no strength. Where a sequence is shown, tags or fusion partners need not be part of it. For part of these data: Binding seen in cells or lysates may run through a third protein.

How the values were obtained:
[1] = molecular target: GST-Nesprin-1-165-859-1144 (mouse); assay: pull-down; GST or GST-Nesprin-1-165 polypeptides coupled to Sepharose beads, incubated overnight at 4°C with lysates of transfected COS7 cells (50 mM Tris-HCl pH 7.5, 150 mM NaCl, 1% NP-40, 0.5% sodium desoxycholate, 1 mM DTT); western blot with GFP antibody mAb K3-184; only the target purified
[2] = molecular target: GST-Nesprin-1-165-573-858 (mouse); assay: as above
[3] = molecular target: GST-Nesprin-1-165-1-286 (mouse); assay: as above
[4] = molecular target: GST-Nesprin-1-165-1145-1431 (mouse); assay: as above
[5] = molecular target: BD-Nesprin-1-165-859-1144 (mouse); assay: two-hybrid; Gal4 system, Nesprin-1-165 polypeptides as BD fusions (pGBKT7), Nesprin-3-ΔC as AD fusion (pGADT7), yeast strain Y190; growth on selection plates and filter lift β-galactosidase assay
[6] = molecular target: BD-Nesprin-1-165-ABD (mouse); assay: as above
[7] = molecular target: BD-Nesprin-1-165-573-858 (mouse); assay: as above
[8] = molecular target: BD-Nesprin-1-165-1145-1431 (mouse); assay: as above

B1: GFP-Nesprin-3-ΔC (aa 1-437) (domain or fragment, UniProt Q6ZMZ3 1-437)
chain: MTQQPQDDFDRSVEDAQAWMKAVQDQLQVNDNTQGPRAALEARLWETEKICQLEPEGRVRVDLVLRMAEALLACCPGDQKPGILARLKDIKAQWEETVTYMTHCHSRIEWVWLHWSEYLLARDEFYRWFQKMMVTLEPHIELQLGLKEKQWQLSHAQVLLHNVDNQAVLLDRLLEEAASLFNRIGDPSVDEDAQKRMKAEYDAVKAKAQKRVDLLEQVAREHEEYQAGVDEFQLWLKAVVEKVNGCLGRNCKLPITQRLSTLQDIAKDFPRGEESLETLEEQSAGVIRNTSPLGAEKITGELEEMRKVLEKLRALWEEEEERLRGLLRSRGAWEQQIKQLEAELSEFRMVLQRLAQEGLQPAAKAGTEDELVAHWRRYSATRAALASEEPRVDRLQAQLKELIVFPHNLKPLSDSVIATIQEYQSLKVKSARLRNAA
binding [1]: no binding | binding [2]: binds | binding [3]: binds | binding [4]: binds

B2: AD-Nesprin-3-ΔC (domain or fragment, UniProt Q6ZMZ3 1-429)
chain: MTQQPQDDFDRSVEDAQAWMKAVQDQLQVNDNTQGPRAALEARLWETEKICQLEPEGRVRVDLVLRMAEALLACCPGDQKPGILARLKDIKAQWEETVTYMTHCHSRIEWVWLHWSEYLLARDEFYRWFQKMMVTLEPHIELQLGLKEKQWQLSHAQVLLHNVDNQAVLLDRLLEEAASLFNRIGDPSVDEDAQKRMKAEYDAVKAKAQKRVDLLEQVAREHEEYQAGVDEFQLWLKAVVEKVNGCLGRNCKLPITQRLSTLQDIAKDFPRGEESLETLEEQSAGVIRNTSPLGAEKITGELEEMRKVLEKLRALWEEEEERLRGLLRSRGAWEQQIKQLEAELSEFRMVLQRLAQEGLQPAAKAGTEDELVAHWRRYSATRAALASEEPRVDRLQAQLKELIVFPHNLKPLSDSVIATIQEYQSLKVK
binding [5]: no binding | binding [6]: binds | binding [7]: binds | binding [8]: binds

B3: Nesprin-1-165-GFP (aa 1-1431) (protein, UniProt Q6ZWR6-5 1-1431)
chain: MATSRASSRSHRDITNVMQRLQDEQEIVQKRTFTKWINSHLAKRKPPMVVDDLFEDMKDGIKLLALLEVLSGQKLPCEQGHRVKRIHAVANIGTALKFLEGRKSMYRGSPIKLVNINATDIADGRPSIVLGLMWTIILYFQIEELTSNLPQLQSLSSSASSVDSMVSTETASPPSKRKVAAKIQGNAKKTLLKWVQHTAGKQMGIEVKDFGKSWRTGLAFHSVIHAIQPELVDLEKVKTRSNRENLEDAFTIAETQLGIPRLLDPEDVDVDKPDEKSIMTYVAQFLTQYPDIHGAGCDGQEDDRDDRLILKETKVWIEQFERDFTRAQMTESSLQDKYQAFKHFRVQYEMKRKQVEHIIQPLQRDGKLTLDQALVKQCWERVSSRLFDWHIQLDKSLPAPLGTIGAWLYRAEVALREEITIQQVHEETANTIQRKLEQHKDLLQNTDAHKRAFHEIYQTRSVNGIPMPPDQLEDMAERFHFVSSTSELHLMKMEFLELKYRLLSLLVLAESKLKSWIIKYGRRESVELLLQSYISFIENSKFFEQYEVTYQILKQTADIYVKAEGSVEEAENVMKFMSEATAQWRNLSVEVRSVRSMLEEVISNWDRYGDTVASLQAWLEDAEKMLSQSEHAKKDFFRNLPHWIQQHTAMNDAGNFLIETCDEIVSRDLKQQLLLLNGRWRELFMEVKQYARADEMDRMKKEYIDVTTTLFGFATEAHRKLSEPLEVSFINVKLLIQDLEDLEKRVPVMDAQYKMIAKKAHLFAKESPQEEANEMLTTMSKLKEQLSKVKECCSPLLYEAQQLTVPLEELETQITSFYDSLGKINEILSVLEQEAQSSTLFKQKHQELLASQENCKKSLTLIEKGSQSVQKLVTSSQARKPWDHTKLQKQIADVHHAFQSMIKKTGDWKKHVEANSRLMKKFEESRAELEKVLRVAQEGLEEKGDPEELLRRHTEFFSQLDQRVLNAFLKACDELTDILPEQEQQGLQEAVRKLHKQWKDLQGEAPYHLLHLKIAVEKDRFSAAVEECRAELEQETKLAPQEGSEKIIKEHRVFFSDKGPHHLCEKRLQLIEELCGKLPVQDPVRDTCGACHTALKELKASIDNTYTMLVDDPDKWKDYTSRFSEFSSWVSAKKACLKKIKDEPIDTGNHDEVKHMVDEIRNDITKKGESLSWLKSRLKYLIDISSENEAQKRGDELAELSSSFKALVALLSEVEKLLSNFGECVQYKEIVKSSLEGLISGPQESKEEAEMILDSKNLLEAQQLLLHHQQKTKMISAKKRDLQEQMEQAQQGGQAGPGQEELRKLESTLTGLEQSRERQERRIQVSLRKWERFETNKETVVRYLFQTGSSHERFLSFSSLESLSSELEQTKEFSKRTESIATQAENLVKEAAELPLGPRNKRVLQRQAKSIKEQVTTLEDTLEEEYVLHHF
binding [1]: no binding | binding [2]: binds | binding [3]: binds | binding [4]: binds
